Reference: PMC3176292
Results are given in words; binding and its absence hold for the method and conditions named. Binding seen in cells or lysates may run through a third protein. Some binding calls cover weakened binding; strength is not graded here. For part of these data: Where a sequence is shown, tags or fusion partners need not be part of it.

Amino acid sequences for entries named in this document (tags omitted). A change or cut given only in a name is not applied to a line headed by its entry. Chains listed by the source or under a name are the forms on record and can include a tag or linker. Residues count along the entry.
UniProt O35625: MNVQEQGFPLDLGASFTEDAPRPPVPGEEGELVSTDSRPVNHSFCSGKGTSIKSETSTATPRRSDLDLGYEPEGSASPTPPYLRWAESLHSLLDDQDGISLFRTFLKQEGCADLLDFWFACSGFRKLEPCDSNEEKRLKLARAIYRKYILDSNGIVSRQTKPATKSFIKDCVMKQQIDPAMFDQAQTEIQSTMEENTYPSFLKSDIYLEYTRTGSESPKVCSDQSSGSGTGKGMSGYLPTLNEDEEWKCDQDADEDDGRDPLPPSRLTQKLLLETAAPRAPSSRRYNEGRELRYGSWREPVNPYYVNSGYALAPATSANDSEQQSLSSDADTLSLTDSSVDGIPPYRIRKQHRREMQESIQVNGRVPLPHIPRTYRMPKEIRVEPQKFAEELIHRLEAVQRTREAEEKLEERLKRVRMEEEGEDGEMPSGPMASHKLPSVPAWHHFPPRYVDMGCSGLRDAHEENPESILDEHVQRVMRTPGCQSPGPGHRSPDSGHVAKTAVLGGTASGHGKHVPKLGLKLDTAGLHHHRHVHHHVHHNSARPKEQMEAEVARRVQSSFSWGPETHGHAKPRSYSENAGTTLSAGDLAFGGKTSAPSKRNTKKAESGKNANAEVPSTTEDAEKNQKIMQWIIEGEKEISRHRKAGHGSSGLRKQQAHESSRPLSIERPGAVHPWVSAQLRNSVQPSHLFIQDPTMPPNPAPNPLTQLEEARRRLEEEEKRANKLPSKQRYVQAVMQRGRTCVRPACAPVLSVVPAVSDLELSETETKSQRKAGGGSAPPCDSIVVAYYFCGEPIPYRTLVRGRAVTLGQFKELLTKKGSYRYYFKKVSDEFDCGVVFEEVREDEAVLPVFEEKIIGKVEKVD
UniProt P10085: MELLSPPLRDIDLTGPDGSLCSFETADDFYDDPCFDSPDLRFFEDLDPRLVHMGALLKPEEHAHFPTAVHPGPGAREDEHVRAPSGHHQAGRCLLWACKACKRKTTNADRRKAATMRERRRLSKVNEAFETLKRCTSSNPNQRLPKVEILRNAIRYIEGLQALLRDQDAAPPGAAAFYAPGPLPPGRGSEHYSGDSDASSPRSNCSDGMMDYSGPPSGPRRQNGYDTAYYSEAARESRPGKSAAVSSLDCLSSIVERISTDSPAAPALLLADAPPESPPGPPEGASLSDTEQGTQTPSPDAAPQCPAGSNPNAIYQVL
UniProt Q06413, residues 1-302: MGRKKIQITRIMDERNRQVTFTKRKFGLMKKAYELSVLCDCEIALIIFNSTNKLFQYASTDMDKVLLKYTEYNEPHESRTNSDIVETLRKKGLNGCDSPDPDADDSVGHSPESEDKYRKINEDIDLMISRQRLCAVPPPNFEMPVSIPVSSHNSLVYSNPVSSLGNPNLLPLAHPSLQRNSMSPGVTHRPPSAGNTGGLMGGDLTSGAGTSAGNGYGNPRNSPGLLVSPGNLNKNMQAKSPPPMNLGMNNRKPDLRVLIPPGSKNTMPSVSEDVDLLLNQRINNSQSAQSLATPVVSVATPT
UniProt Q92793, residues 1940-1998: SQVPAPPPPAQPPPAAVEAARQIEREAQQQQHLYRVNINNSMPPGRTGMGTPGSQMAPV
UniProt O43524, residues 153-249: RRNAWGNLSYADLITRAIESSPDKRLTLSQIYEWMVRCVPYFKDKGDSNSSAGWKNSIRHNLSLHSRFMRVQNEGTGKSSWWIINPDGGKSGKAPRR
UniProt P84022: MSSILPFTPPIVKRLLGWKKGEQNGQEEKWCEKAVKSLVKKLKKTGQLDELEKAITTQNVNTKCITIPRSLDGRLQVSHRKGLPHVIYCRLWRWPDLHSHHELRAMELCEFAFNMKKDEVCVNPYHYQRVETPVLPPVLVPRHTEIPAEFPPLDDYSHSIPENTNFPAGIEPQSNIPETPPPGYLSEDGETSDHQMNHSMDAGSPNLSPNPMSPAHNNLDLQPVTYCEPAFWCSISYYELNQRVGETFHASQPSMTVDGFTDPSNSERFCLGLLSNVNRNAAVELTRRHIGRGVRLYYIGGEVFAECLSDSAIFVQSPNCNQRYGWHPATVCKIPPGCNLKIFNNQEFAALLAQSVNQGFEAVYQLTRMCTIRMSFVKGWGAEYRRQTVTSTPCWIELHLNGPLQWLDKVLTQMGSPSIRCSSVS
Renilla luciferase-Smad3 QPSMT/SE mutant (residues 252–256 and 266–267 changed to the Smad1 equivalents STSVL/NKN) (P84022, form named): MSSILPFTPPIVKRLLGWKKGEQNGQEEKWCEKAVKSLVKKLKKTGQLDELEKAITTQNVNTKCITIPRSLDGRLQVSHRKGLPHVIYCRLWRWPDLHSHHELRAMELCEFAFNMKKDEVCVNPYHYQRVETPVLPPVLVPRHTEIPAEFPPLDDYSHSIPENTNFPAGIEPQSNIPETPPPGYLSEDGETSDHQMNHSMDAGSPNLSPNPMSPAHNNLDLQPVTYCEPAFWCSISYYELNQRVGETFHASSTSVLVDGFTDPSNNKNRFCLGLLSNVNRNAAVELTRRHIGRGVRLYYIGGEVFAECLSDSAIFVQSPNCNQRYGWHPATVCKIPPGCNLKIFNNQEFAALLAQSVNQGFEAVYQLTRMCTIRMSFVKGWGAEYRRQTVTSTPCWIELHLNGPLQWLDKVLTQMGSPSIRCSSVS

Assays:
Test in all cases: co-IP; LUMIER: Renilla luciferase-Smad3 and Flag-tagged partner co-expressed with constitutively active Alk5 in HEK-293; Flag protein captured from cleared lysate (TNE: 10 mM Tris-HCl pH 7.8, 150 mM NaCl, 1 mM EDTA, 1% Igepal CA-630) on anti-Flag 96-well plates, 2 h at 4 °C; co-precipitated Renilla luciferase activity, TrxGA background subtracted, percent of wild-type Smad3
Flag-mAxin (mouse) = Flag-mAxin (mouse) (UniProt O35625)
[1] = molecular target: T1, SRF Smad-binding domain (amino acids 132–223) on the 3xFlag-thioredoxin scaffold (UniProt P11831)
T1 sequence: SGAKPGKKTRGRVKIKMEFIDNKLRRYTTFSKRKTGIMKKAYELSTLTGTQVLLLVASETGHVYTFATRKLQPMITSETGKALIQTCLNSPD

3XFlag-MyoD = 3XFlag-MyoD (UniProt P10085)
[2] = molecular target: Flag-hMEF2C(1-302) (human) (UniProt Q06413)
[3] = molecular target: T2, ATF3 Smad-binding peptide (amino acids 61–111) on the 3xFlag-thioredoxin scaffold (UniProt P18847)
T2 sequence: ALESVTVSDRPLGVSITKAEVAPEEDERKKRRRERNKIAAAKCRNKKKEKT

[4] = molecular target: CBP Smad-binding peptide (amino acids 1940–1998) on the 3xFlag-thioredoxin scaffold (UniProt Q92793)
[5] = molecular target: T3, Flag-SkiW274E, full length (UniProt P12755)
T3 sequence: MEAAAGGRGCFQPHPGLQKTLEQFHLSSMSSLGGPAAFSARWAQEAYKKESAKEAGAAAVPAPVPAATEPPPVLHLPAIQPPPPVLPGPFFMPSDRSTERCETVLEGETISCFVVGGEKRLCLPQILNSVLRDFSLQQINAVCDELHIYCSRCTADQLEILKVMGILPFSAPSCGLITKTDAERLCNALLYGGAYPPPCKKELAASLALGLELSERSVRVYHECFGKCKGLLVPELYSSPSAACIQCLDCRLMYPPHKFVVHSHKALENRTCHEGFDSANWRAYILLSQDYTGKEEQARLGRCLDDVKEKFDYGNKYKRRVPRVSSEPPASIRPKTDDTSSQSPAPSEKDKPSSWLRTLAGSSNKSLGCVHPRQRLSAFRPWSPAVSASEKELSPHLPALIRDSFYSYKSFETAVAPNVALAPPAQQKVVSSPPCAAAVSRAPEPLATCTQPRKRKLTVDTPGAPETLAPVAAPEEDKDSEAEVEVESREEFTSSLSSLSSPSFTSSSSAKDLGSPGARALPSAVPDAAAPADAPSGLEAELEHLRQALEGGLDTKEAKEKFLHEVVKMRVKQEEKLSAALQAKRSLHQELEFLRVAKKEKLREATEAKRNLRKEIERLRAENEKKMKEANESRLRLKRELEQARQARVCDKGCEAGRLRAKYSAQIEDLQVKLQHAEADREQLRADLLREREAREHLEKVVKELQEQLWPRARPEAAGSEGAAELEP

[6] = molecular target: FoxO3 Smad-binding domain (amino acids 153–249) on the 3xFlag-thioredoxin scaffold (UniProt O43524)
[7] = molecular target: T4, SIP1 Smad-binding domain (amino acids 315–487) on the 3xFlag-thioredoxin scaffold (UniProt Q9R0G7)
T4 sequence: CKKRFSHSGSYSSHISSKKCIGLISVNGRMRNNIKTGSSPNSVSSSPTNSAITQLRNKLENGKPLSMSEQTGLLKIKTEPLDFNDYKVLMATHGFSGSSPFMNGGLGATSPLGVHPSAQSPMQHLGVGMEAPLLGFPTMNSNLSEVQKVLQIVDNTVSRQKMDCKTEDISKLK

Flag-SARA, full length = molecular target: T5, Flag-SARA, full length (UniProt O95405)
T5 sequence: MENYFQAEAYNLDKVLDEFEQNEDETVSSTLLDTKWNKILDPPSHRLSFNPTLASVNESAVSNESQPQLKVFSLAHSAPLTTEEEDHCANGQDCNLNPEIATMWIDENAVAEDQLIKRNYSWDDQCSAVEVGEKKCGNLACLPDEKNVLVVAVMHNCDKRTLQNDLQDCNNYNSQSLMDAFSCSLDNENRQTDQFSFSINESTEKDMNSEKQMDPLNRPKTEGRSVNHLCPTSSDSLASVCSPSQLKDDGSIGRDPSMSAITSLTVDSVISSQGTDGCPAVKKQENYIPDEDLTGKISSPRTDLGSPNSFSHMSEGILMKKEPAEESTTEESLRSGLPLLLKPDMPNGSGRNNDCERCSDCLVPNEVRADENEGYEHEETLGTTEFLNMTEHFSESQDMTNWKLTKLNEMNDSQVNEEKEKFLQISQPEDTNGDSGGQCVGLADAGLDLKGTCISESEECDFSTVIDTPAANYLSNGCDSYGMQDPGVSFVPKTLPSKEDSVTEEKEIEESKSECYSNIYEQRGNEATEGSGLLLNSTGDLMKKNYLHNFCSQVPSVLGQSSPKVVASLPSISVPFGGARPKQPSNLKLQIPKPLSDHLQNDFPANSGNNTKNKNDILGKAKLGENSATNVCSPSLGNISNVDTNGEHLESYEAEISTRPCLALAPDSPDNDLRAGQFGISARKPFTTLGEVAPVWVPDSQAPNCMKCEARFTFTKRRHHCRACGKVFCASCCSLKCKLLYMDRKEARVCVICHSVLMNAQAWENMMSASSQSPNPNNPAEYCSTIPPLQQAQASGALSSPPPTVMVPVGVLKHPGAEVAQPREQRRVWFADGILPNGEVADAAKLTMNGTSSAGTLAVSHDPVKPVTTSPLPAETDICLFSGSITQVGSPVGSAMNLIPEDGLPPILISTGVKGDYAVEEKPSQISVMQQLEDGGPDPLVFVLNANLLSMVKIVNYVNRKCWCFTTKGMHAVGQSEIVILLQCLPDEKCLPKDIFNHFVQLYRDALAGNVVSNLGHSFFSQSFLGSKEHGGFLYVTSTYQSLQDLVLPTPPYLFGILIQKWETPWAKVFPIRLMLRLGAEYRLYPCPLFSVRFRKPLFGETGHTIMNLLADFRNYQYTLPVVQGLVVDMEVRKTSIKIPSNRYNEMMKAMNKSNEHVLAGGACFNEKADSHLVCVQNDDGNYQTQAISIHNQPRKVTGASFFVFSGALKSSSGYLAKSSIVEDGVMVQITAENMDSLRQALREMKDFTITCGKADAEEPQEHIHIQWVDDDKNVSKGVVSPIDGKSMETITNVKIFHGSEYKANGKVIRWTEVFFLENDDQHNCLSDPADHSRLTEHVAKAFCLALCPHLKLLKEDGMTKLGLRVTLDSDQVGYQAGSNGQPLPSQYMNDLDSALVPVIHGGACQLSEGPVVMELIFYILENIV

Measured: binding

Renilla luciferase-Smad3 D408H (from UniProt P84022 1-425)
binds: Flag-mAxin (mouse) | [1] | 3XFlag-MyoD | [2] | [3]

Renilla luciferase-Smad3 K341A (from UniProt P84022 1-425)
binds: [4]

Renilla luciferase-Smad3 QPSMT/SE mutant (residues 252–256 and 266–267 changed to the Smad1 equivalents STSVL/NKN) (from UniProt P84022 1-425)
binds: [5]

Renilla luciferase-Smad3 V224A (from UniProt P84022 1-425)
binds: Flag-mAxin (mouse) | [1] | 3XFlag-MyoD | [2]

Renilla luciferase-Smad3 V356R (from UniProt P84022 1-425)
binds: Flag-mAxin (mouse) | [1] | 3XFlag-MyoD | [2]

Renilla luciferase-Smad3 W406A (from UniProt P84022 1-425)
binds: [4] | Flag-mAxin (mouse) | [1] | 3XFlag-MyoD | [2]

Renilla luciferase-Smad3 Y226A (from UniProt P84022 1-425)
binds: Flag-mAxin (mouse) | [1] | 3XFlag-MyoD | [2]

Renilla luciferase-Smad3 Y297A (from UniProt P84022 1-425)
binds: [6] | [2]

Renilla luciferase-Smad3 wild type, co-expressed with constitutively active Alk5 (phosphorylated Smad3) (from UniProt P84022 1-425)
binds: all assays above
